Data on 2 substances can be found in PMC11796622.

Sequences of proteins named here, by UniProt entry; tags and fusion partners are left off. A change or cut given only in a name is not applied to a line headed by its entry. A line that says so, or that is headed by a name, gives the form on record, which may keep a tag or linker. Residues count along the entry.
IL17RA-Wt-HA (wild-type interleukin 17 receptor type A, HA-tagged) (Q96F46, residues 33-866): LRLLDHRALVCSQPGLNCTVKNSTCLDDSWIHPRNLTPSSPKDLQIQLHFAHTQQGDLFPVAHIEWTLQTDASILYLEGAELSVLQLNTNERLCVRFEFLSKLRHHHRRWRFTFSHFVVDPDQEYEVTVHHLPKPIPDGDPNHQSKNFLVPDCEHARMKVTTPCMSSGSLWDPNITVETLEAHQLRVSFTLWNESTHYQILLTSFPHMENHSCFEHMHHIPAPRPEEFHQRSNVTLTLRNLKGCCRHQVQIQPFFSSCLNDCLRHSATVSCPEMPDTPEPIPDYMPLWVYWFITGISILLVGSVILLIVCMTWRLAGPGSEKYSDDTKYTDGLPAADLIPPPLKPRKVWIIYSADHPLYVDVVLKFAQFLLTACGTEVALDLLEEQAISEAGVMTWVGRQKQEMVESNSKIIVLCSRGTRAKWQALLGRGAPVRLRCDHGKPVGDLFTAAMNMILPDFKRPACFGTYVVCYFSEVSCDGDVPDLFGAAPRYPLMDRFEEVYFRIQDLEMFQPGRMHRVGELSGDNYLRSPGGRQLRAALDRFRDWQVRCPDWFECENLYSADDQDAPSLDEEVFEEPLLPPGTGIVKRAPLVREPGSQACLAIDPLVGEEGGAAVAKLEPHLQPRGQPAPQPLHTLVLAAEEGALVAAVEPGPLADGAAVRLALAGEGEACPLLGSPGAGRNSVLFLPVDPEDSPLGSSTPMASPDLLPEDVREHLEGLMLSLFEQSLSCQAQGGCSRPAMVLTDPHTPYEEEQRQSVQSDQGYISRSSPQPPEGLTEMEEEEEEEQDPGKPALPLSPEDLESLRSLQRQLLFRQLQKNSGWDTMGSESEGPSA
IL17RA-Y391*-HA (IL17RA p.Tyr391Ter mutant, HA-tagged) (Q96F46, residues 33-390): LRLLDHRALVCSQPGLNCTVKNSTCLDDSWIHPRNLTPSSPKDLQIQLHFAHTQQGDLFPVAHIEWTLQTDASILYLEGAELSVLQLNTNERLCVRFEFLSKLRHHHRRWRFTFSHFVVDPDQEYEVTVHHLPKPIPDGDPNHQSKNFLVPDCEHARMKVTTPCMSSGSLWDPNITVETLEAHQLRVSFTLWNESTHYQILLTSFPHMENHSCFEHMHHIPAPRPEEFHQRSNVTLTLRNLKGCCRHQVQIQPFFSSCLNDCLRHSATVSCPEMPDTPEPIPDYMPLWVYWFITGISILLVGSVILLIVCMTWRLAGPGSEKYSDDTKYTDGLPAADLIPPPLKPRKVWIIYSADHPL

Results are given in words; binding and its absence hold for the method and conditions named. In cells and extracts the contact can be indirect. Some binding calls cover weakened binding; strength is not graded here. Sequences can lack the tags named with a protein.

The target in this assay is T1, IL17RC-Flag (human) (UniProt Q8NAC3).
T1 sequence: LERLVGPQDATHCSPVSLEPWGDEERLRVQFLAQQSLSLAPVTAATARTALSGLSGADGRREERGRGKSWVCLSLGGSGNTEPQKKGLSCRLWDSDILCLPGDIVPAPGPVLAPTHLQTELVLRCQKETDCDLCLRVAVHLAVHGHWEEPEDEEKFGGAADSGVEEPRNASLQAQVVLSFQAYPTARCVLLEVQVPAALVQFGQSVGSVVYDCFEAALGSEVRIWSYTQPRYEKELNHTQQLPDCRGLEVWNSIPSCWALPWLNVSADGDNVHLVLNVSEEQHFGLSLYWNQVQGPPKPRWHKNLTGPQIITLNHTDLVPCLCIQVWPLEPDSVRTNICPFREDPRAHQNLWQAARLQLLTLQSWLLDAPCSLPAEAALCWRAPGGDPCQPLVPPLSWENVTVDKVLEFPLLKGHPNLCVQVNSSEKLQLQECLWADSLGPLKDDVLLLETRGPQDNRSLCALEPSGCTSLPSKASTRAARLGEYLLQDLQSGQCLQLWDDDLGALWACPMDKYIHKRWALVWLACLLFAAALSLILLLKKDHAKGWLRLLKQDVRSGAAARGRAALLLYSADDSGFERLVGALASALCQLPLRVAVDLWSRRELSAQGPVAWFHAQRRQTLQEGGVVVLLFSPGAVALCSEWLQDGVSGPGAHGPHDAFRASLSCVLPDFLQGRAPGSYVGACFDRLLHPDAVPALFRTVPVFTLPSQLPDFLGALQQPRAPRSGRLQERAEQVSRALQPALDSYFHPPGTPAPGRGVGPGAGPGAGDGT
The experiment in a line: co-IP; HEK293T cells co-transfected with IL17RA-HA (Wt or Y391*) and IL17RC-Flag or IL17RD-Flag (1.0 ug each); IP with mouse anti-DDDDK (Flag) agarose; western blots with anti-HA and anti-Flag.

Turning to “IL17RA-Wt-HA (wild-type interleukin 17 receptor type A, HA-tagged) (from UniProt Q96F46-1 33-866)”, the binding result is “binds”.

Turning to “IL17RA-Y391*-HA (IL17RA p.Tyr391Ter mutant, HA-tagged) (from UniProt Q96F46-1 33-390) (receptor)”, the binding entry is “binds”.
